These results are taken from paper PMC11550977.

Amino acid sequences for entries named in this document (tags omitted).
UniProt P52732: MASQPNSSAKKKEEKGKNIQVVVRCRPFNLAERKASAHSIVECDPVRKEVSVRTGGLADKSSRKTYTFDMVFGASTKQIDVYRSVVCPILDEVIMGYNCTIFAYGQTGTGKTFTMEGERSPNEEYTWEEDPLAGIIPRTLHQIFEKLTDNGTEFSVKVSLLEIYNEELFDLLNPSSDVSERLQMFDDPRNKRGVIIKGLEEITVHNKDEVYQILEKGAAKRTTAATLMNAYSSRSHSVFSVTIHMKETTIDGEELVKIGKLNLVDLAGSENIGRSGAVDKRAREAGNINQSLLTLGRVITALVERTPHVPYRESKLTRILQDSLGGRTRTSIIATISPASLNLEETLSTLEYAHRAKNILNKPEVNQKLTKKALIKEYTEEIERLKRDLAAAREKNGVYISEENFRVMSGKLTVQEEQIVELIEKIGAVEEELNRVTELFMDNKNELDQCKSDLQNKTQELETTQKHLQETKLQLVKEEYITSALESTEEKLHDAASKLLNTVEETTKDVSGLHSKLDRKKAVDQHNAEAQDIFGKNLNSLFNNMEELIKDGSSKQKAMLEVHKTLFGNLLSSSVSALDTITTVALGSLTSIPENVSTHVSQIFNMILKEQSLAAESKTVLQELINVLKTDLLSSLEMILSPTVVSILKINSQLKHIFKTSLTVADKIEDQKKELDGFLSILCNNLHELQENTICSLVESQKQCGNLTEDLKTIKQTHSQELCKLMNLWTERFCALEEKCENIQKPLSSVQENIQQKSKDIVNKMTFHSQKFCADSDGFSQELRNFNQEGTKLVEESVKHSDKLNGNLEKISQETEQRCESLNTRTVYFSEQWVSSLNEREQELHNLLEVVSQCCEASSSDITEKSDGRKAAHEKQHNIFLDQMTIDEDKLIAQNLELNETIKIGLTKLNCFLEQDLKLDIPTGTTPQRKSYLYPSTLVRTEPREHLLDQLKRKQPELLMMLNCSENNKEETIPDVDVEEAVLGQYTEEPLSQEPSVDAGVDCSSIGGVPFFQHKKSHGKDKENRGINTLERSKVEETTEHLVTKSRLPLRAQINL

The experiment addresses T1, RACGAP1 (human (endogenous in HepG2 and HCC-LM3)) (UniProt Q9H0H5).
T1 sequence: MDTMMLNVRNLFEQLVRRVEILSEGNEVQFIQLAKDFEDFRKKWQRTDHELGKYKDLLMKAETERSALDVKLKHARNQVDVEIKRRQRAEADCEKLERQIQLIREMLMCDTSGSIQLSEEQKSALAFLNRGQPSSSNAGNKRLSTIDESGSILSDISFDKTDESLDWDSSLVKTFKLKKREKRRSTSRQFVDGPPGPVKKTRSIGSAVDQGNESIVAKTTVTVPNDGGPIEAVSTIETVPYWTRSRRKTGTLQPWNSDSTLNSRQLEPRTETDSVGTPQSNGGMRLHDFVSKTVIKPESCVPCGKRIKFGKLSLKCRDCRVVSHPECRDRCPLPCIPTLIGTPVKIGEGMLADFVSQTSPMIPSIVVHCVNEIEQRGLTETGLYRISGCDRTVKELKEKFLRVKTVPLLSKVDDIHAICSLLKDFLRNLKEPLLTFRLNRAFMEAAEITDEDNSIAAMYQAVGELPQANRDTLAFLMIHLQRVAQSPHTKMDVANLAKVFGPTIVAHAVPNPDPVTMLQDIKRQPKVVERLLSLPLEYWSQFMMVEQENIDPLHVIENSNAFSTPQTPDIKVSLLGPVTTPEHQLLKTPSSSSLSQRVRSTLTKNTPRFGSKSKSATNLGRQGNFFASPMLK
As to the kind of experiment: co-IP; lysates of HepG2 and LM3 cells; 2 ug primary antibody overnight at 4°C, Protein A+G Agarose 1 h at 4°C, washed 5 times with PBS; Beyotime Immunoprecipitation Kit.

Results are given in words; binding and its absence hold for the method and conditions named. Binding seen in cells or lysates may run through a third protein. Some results given as binding are weak or reduced against the parent protein; the word gives no strength.

Consider KIF11 (from UniProt P52732 1-1056), for which the binding result is “binds”.
